{"source": "patent US12428442B2", "about": "“Compounds, compositions and methods for synthesis” (WAVE LIFE SCIENCES LTD., priority 2017, dated 2025)", "note": "“And” between values parts separate entries of the source, which are not always exact repeats. Equal values may be shown once."}
{"test": "Use of chiral auxiliaries / phosphoramidite monomers in oligonucleotide synthesis (SOCICS or DPSE cycle), analysed by RP-HPLC/UPLC (Table 7)", "settings": "dC dimer; cycle DPSE; activator 0.45M ETT"}
{"compound": "C[Si](C[C@@H](O)[C@@H]1C[C@@H]2CCCC[C@@H]2N1)(c1ccccc1)c1ccccc1", "note": "[WV-CA-112]", "Dimer Conv. %": "73.4% and 84.9%", "Dimer HPLC Area % dC": "12.13% and 6.34%", "Dimer HPLC Area % dCC (Rp)": "1.04% and 1.22%", "Dimer HPLC Area % dCC (Sp)": "86.83% and 92.44%", "Dimer Rp/Sp": "Sp", "Dimer d.r.": "98.82 and 98.70"}
{"test": "Use of chiral auxiliaries / phosphoramidite monomers in oligonucleotide synthesis (SOCICS or DPSE cycle), analysed by RP-HPLC/UPLC (Table 7)", "settings": "dC dimer; cycle DPSE; activator 0.5M CMIMT", "units": {"Dimer HPLC Area % dCC (PO)": "%", "Dimer HPLC Area % dC": "%"}}
{"compound": "C[Si](C[C@@H](O)[C@@H]1C[C@@H]2CCCC[C@@H]2N1)(c1ccccc1)c1ccccc1", "note": "[WV-CA-112]", "Dimer Conv. %": "83.0% and 71.0% and 96.3%", "Dimer HPLC Area % dCC (PO)": 0.64, "Dimer HPLC Area % dCC (Rp)": "0.37% and 0.24% and 1.31%", "Dimer HPLC Area % dCC (Sp)": "92.39% and 86.26% and 96.72%", "Dimer Rp/Sp": "Sp", "Dimer d.r.": "99.60 and 99.72 and 98.66"}
{"compound": "C[Si](C[C@@H](O)[C@@H]1CCCCN1)(C1CCCCC1)C1CCCCC1", "note": "[WV-CA-045]", "Dimer Conv. %": "75.2%", "Dimer HPLC Area % dC": 10.34, "Dimer HPLC Area % dCC (PO)": 0.86, "Dimer HPLC Area % dCC (Rp)": "61.66%", "Dimer HPLC Area % dCC (Sp)": "27.14%", "Dimer Rp/Sp": "Rp", "Dimer d.r.": 69.44}
{"test": "Use of chiral auxiliaries / phosphoramidite monomers in oligonucleotide synthesis (SOCICS or DPSE cycle), analysed by RP-HPLC/UPLC (Table 7)", "settings": "dC dimer; cycle SOSICS; activator CMPT", "units": {"Dimer Conv. %": "%", "Dimer HPLC Area % dC": "%", "Dimer HPLC Area % dCC (PO)": "%", "Dimer HPLC Area % dCC (Rp)": "%", "Dimer HPLC Area % dCC (Sp)": "%"}}
{"compound": "C#C[C@@](C)(O)[C@@H]1CCCN1", "note": "[WV-CA-002, (R)-2-((S)-pyrrolidin-2-yl)but-3-yn-2-ol]", "Dimer Conv. %": 22.2, "Dimer HPLC Area % dC": 25.44, "Dimer HPLC Area % dCC (PO)": 3.21, "Dimer HPLC Area % dCC (Rp)": 0.40, "Dimer HPLC Area % dCC (Sp)": 10.75, "Dimer Rp/Sp": "Sp", "Dimer d.r.": 96.41}
{"compound": "CC1(C)CN[C@H](C2(O)CCCC2)C1", "note": "[WV-CA-201]", "Dimer Conv. %": 77.8, "Dimer HPLC Area % dC": 12.43, "Dimer HPLC Area % dCC (PO)": 2.53, "Dimer HPLC Area % dCC (Rp)": 2.03, "Dimer HPLC Area % dCC (Sp)": 81.30, "Dimer Rp/Sp": "Sp", "Dimer d.r.": 97.56}
{"compound": "COc1ccc(C[C@@](C)(O)[C@@H]2CCCN2)cc1", "note": "[WV-CA-079]", "Dimer Conv. %": 74.9, "Dimer HPLC Area % dC": 14.42, "Dimer HPLC Area % dCC (PO)": 1.49, "Dimer HPLC Area % dCC (Rp)": 0.84, "Dimer HPLC Area % dCC (Sp)": 82.71, "Dimer Rp/Sp": "Sp", "Dimer d.r.": 98.99}
{"compound": "CN[C@H]1CCCC[C@@H]1O", "note": "[WV-CA-207]", "Dimer Conv. %": 36.2, "Dimer HPLC Area % dC": 33.39, "Dimer HPLC Area % dCC (PO)": 1.20, "Dimer HPLC Area % dCC (Rp)": 24.80, "Dimer HPLC Area % dCC (Sp)": 11.33, "Dimer Rp/Sp": "Rp", "Dimer d.r.": 68.64}
{"compound": "C[C@@](O)(c1ccccc1)[C@@H]1CCCN1", "note": "[WV-CA-100-L]", "Dimer Rp/Sp": "Sp"}
{"compound": "CN[C@H]1CCCC[C@]1(C)O", "note": "[WV-CA-070-S]", "Dimer Conv. %": 95.0, "Dimer HPLC Area % dC": 2.61, "Dimer HPLC Area % dCC (PO)": 1.76, "Dimer HPLC Area % dCC (Rp)": 90.48, "Dimer HPLC Area % dCC (Sp)": 5.16, "Dimer Rp/Sp": "Rp", "Dimer d.r.": 94.60}
{"compound": "C[C@@](O)(c1cccc(F)c1)[C@@H]1CCCN1", "note": "[WV-CA-081]", "Dimer Conv. %": 66.6, "Dimer HPLC Area % dC": 19.55, "Dimer HPLC Area % dCC (PO)": 1.51, "Dimer HPLC Area % dCC (Rp)": 0.31, "Dimer HPLC Area % dCC (Sp)": 74.97, "Dimer Rp/Sp": "Sp", "Dimer d.r.": 99.59}
{"compound": "OC1([C@@H]2CCCN2)CCCCC1", "note": "[WV-CA-060]", "Dimer Conv. %": 85.4, "Dimer HPLC Area % dC": 7.8884, "Dimer HPLC Area % dCC (PO)": 0.3918, "Dimer HPLC Area % dCC (Rp)": 2.1565, "Dimer HPLC Area % dCC (Sp)": 88.619, "Dimer Rp/Sp": "Sp", "Dimer d.r.": 97.62}
{"compound": "CN[C@@H]1CCCCCC[C@H]1O", "note": "[WV-CA-224]", "Dimer Conv. %": 32.1, "Dimer HPLC Area % dC": 44.27, "Dimer HPLC Area % dCC (PO)": 2.04, "Dimer HPLC Area % dCC (Rp)": 36.82, "Dimer HPLC Area % dCC (Sp)": 2.39, "Dimer Rp/Sp": "Rp", "Dimer d.r.": 93.90}
{"compound": "CN[C@H]1CCC[C@H]1C1(O)CCCC1", "note": "[WV-CA-066-R]", "Dimer Conv. %": 0.0, "Dimer HPLC Area % dC": 100.00, "Dimer HPLC Area % dCC (PO)": 0.00, "Dimer HPLC Area % dCC (Rp)": 0.00, "Dimer HPLC Area % dCC (Sp)": 0.00, "Dimer Rp/Sp": "Sp"}
{"compound": "CN[C@H]1CCCC[C@@]1(O)c1ccccc1", "note": "[WV-CA-026]", "Dimer Conv. %": 92.7, "Dimer HPLC Area % dC": 3.7919, "Dimer HPLC Area % dCC (PO)": 0.8648, "Dimer HPLC Area % dCC (Rp)": 90.8545, "Dimer HPLC Area % dCC (Sp)": 2.7404, "Dimer Rp/Sp": "Rp", "Dimer d.r.": 97.07}
{"compound": "OC1([C@@H]2CCCN2)CC1", "note": "[WV-CA-057]", "Dimer Conv. %": 8.3, "Dimer HPLC Area % dC": 9.9999, "Dimer HPLC Area % dCC (PO)": 0.00, "Dimer HPLC Area % dCC (Rp)": 0.00, "Dimer HPLC Area % dCC (Sp)": 1.80, "Dimer Rp/Sp": "Sp", "Dimer d.r.": 100.00}
{"compound": "C=C[C@@H](O)[C@@H]1CCCN1", "note": "[WV-CA-003]", "Dimer Conv. %": 87.8, "Dimer HPLC Area % dC": 6.53, "Dimer HPLC Area % dCC (PO)": 3.33, "Dimer HPLC Area % dCC (Rp)": 1.81, "Dimer HPLC Area % dCC (Sp)": 87.49, "Dimer Rp/Sp": "Sp", "Dimer d.r.": 97.97}
{"compound": "CN[C@H]1CCCC[C@]1(O)c1ccccc1", "note": "[WV-CA-027]", "Dimer Conv. %": 37.6, "Dimer HPLC Area % dC": 42.968, "Dimer HPLC Area % dCC (PO)": 0.636, "Dimer HPLC Area % dCC (Rp)": 47.0728, "Dimer HPLC Area % dCC (Sp)": 3.3719, "Dimer Rp/Sp": "Rp", "Dimer d.r.": 93.32}
{"compound": "CC(C)N[C@@H](C(C)C)C1(O)CCCC1", "note": "[WV-CA-092]", "Dimer Conv. %": 4.8, "Dimer HPLC Area % dC": 87.07, "Dimer HPLC Area % dCC (PO)": 0.00, "Dimer HPLC Area % dCC (Rp)": 8.70, "Dimer HPLC Area % dCC (Sp)": 0.00, "Dimer Rp/Sp": "Rp", "Dimer d.r.": 100.00}
{"compound": "OC(c1ccccc1)(c1ccccc1)[C@@H]1CCCN1", "note": "[WV-CA-091]", "Dimer Conv. %": 27.4, "Dimer HPLC Area % dC": 56.40, "Dimer HPLC Area % dCC (PO)": 1.39, "Dimer HPLC Area % dCC (Rp)": 1.21, "Dimer HPLC Area % dCC (Sp)": 39.44, "Dimer Rp/Sp": "Sp", "Dimer d.r.": 97.02}
{"compound": "C[C@@](O)(C1CCCC1)[C@@H]1CCCN1", "note": "[WV-CA-078]", "Dimer Conv. %": 83.8, "Dimer HPLC Area % dC": 8.79, "Dimer HPLC Area % dCC (PO)": 1.51, "Dimer HPLC Area % dCC (Rp)": 1.13, "Dimer HPLC Area % dCC (Sp)": 87.08, "Dimer Rp/Sp": "Sp", "Dimer d.r.": 98.72}
{"compound": "CN[C@@H]1CCCCC[C@H]1O", "note": "[WV-CA-222]", "Dimer Conv. %": 52.3, "Dimer HPLC Area % dC": 25.83, "Dimer HPLC Area % dCC (PO)": 2.17, "Dimer HPLC Area % dCC (Rp)": 2.96, "Dimer HPLC Area % dCC (Sp)": 50.72, "Dimer Rp/Sp": "Sp", "Dimer d.r.": 94.49}
{"compound": "O[C@@H](C[C@@H]1CCCN1)c1ccccc1", "note": "[WV-CA-053]", "Dimer Conv. %": 42.2, "Dimer HPLC Area % dC": 40.4914, "Dimer HPLC Area % dCC (PO)": 0.6205, "Dimer HPLC Area % dCC (Rp)": 45.8627, "Dimer HPLC Area % dCC (Sp)": 11.777, "Dimer Rp/Sp": "Rp", "Dimer d.r.": 79.57}
{"compound": "C[C@@](O)(c1ccccc1)[C@@H]1C[C@@H]2CCCC[C@@H]2N1", "note": "[WV-CA-097]", "Dimer Conv. %": 18.1, "Dimer HPLC Area % dC": 66.15, "Dimer HPLC Area % dCC (PO)": 1.01, "Dimer HPLC Area % dCC (Rp)": 9.33, "Dimer HPLC Area % dCC (Sp)": 18.53, "Dimer Rp/Sp": "Sp", "Dimer d.r.": 66.51}
{"compound": "CN[C@@H]1CCCC[C@@]1(O)c1ccccc1", "note": "[WV-CA-025]", "Dimer Conv. %": 32.8, "Dimer HPLC Area % dC": 50.3482, "Dimer HPLC Area % dCC (PO)": 0.5542, "Dimer HPLC Area % dCC (Rp)": 5.1613, "Dimer HPLC Area % dCC (Sp)": 42.775, "Dimer Rp/Sp": "Sp", "Dimer d.r.": 89.23}
{"test": "Use of chiral auxiliaries / phosphoramidite monomers in oligonucleotide synthesis (SOCICS or DPSE cycle), analysed by RP-HPLC/UPLC (Table 7)", "settings": "no dimer cycle, activator or HPLC data printed"}
{"compound": "O[C@@]1([C@@H]2CCCN2)CCc2ccccc21", "note": "[WV-CA-074-S]", "Dimer Rp/Sp": "Sp"}
